# Further values from the same series stand in other lists.
# System: MOPC-315 myeloma
# Experiment: MOPC-315 Myeloma study #3: β-alethine ip day 0 (3 × 10^5 tumor cells)
compound,measurement,setting,value
"NCCC(=O)NCCSSCCNC(=O)CCN [BT, β-alethine]",Animals Surviving,"BT 100 ng/kg, day 15",7
same,Animals Surviving,"BT 100 ng/kg, day 16",4
same,Animals Surviving,"BT 3 μg/kg, day 10",10
same,Animals Surviving,"BT 3 μg/kg, day 11",10
same,Animals Surviving,"BT 3 μg/kg, day 12",9
same,Animals Surviving,"BT 3 μg/kg, day 13",9
same,Animals Surviving,"BT 3 μg/kg, day 14",9
same,Animals Surviving,"BT 3 μg/kg, day 15",9
same,Animals Surviving,"BT 3 μg/kg, day 16",4
same,Animals Surviving,"BT 3 μg/kg, day 17",0
same,Animals Surviving,"BT 100 μg/kg, day 10",10
same,Animals Surviving,"BT 100 μg/kg, day 11",10
same,Animals Surviving,"BT 100 μg/kg, day 12",10
same,Animals Surviving,"BT 100 μg/kg, day 13",10
same,Animals Surviving,"BT 100 μg/kg, day 14",8
same,Animals Surviving,"BT 100 μg/kg, day 15",8
same,Animals Surviving,"BT 100 μg/kg, day 16",3
same,Animals Surviving,"BT 100 μg/kg, day 17",2
same,Animals Surviving,"BT 100 μg/kg, day 18",0
same,Animals Surviving,"BT 3 mg/kg, day 10",10
same,Animals Surviving,"BT 3 mg/kg, day 11",10
same,Animals Surviving,"BT 3 mg/kg, day 12",10
same,Animals Surviving,"BT 3 mg/kg, day 13",10
same,Animals Surviving,"BT 3 mg/kg, day 14",10
same,Animals Surviving,"BT 3 mg/kg, day 15",10
same,Animals Surviving,"BT 3 mg/kg, day 16",8
same,Animals Surviving,"BT 3 mg/kg, day 17",3
same,Animals Surviving,"BT 3 mg/kg, day 18",3
same,Animals Surviving,"BT 3 mg/kg, day 19",0

# Source: patent publication US6762174B1 (priority 1998, dated 2004)
